Data reported in article PMC10131819.
These are yes or no findings as the source states them, for the method shown. Binding seen in cells or lysates may run through a third protein. Some results given as binding are weak or reduced against the parent protein; the word gives no strength.

Protein sequences, listed by entry. Tags and fused reporters are not part of them.
UniProt Q13547: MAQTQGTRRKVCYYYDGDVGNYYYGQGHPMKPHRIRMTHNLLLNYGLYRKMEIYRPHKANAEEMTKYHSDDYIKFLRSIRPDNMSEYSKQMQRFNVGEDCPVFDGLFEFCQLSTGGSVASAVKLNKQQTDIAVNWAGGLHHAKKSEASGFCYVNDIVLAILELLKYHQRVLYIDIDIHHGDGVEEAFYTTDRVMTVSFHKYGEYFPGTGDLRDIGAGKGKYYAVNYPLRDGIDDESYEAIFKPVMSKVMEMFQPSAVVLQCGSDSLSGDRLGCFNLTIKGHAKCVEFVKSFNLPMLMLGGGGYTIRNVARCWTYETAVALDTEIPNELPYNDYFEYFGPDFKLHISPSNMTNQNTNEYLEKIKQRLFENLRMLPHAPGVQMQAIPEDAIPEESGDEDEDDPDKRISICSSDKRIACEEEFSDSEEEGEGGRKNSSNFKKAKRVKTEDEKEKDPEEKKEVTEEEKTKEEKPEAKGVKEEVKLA
UniProt Q92769: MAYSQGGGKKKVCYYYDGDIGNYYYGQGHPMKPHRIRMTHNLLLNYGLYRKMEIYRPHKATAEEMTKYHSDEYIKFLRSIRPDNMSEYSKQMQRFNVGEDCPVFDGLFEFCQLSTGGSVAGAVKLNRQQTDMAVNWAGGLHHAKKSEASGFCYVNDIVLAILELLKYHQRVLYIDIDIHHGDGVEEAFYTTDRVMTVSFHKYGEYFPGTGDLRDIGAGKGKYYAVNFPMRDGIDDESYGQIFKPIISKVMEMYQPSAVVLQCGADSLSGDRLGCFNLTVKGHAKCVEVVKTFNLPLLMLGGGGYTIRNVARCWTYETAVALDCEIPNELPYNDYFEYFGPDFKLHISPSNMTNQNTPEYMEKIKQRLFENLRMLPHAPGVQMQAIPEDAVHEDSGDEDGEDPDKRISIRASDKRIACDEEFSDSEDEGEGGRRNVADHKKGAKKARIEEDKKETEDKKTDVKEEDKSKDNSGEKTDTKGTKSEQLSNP

Target: T1, ZEB1 (human (endogenous in MCF7/TamR)) (UniProt P37275)
T1 sequence: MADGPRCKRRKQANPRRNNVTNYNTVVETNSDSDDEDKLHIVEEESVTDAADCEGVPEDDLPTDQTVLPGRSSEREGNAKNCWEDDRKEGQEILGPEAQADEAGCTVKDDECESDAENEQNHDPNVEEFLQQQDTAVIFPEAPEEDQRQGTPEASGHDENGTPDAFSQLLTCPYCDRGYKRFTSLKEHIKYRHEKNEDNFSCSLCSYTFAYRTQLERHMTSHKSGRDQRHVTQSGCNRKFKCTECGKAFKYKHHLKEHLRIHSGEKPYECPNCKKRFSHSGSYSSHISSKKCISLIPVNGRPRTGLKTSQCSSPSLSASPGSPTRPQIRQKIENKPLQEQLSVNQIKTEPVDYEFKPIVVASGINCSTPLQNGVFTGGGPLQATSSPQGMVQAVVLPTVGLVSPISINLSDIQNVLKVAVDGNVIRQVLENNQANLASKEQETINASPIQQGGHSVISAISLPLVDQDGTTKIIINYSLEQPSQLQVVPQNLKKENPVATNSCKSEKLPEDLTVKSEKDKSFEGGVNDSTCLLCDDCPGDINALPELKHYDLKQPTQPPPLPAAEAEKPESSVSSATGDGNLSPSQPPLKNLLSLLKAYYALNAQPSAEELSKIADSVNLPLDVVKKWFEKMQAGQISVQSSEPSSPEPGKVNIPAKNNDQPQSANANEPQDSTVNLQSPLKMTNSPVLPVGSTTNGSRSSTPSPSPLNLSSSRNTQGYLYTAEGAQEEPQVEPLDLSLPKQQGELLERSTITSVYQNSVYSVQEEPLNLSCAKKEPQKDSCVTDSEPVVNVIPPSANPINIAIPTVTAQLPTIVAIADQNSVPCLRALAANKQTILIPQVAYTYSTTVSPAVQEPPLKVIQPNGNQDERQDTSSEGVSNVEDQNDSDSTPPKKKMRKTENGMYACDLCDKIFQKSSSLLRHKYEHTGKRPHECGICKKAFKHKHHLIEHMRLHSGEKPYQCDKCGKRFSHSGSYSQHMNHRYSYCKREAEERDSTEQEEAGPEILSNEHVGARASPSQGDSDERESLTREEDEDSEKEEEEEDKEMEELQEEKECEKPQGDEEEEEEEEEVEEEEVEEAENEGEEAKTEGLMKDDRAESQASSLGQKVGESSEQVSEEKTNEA
Test: co-IP; MCF7/TamR cells lysed in RIPA buffer; supernatant incubated overnight at 4 °C with anti-ZEB1 or normal control IgG antibody; protein A/G agarose beads; IP buffer with 0.1 mM EDTA, 50 mM NaCl, 50 mM Tris-HCl; western blot of the precipitate

HDAC1 (from UniProt Q13547 1-482) (enzyme)
binding: binds

HDAC2 (from UniProt Q92769 1-488) (enzyme)
binding: binds
